No constants are given. Whether binding was seen depends on the method and setting. Binding seen in cells or lysates may run through a third protein. Tags and fused reporters may be left off the sequences shown.
Biological target: duck TRIM29 with N-terminal HA tag (duTRIM29-HA), full length (duck)
Experiment: co-IP; HEK293T cells cotransfected, 24 h; NP-40 lysis buffer with 1% PMSF; lysate incubated with anti-HA agarose beads 4-6 h at 4°C; immunoblot

B1: full-length duck RIG-I with C-terminal MYC tag (duRIG-I-MYC) (protein, UniProt D3TI84 1-933)
chain: MTADEKRSLQCYRRYIERSLNPVYVLGNMTDWLPDELRERIRKEEERGVSGAAALFLDAVLQLEARGWFRGMLDAMLAAGYTGLAEAIENWDFSKLEKLELHRQLLKRIEATMLEVDPVALIPYISTCLIDRECEEIQQISENRSKAAGITKLIECLCRSDKEHWPKSLQLALDTTGYYRASELWDIREDNAKDVDSEMTDASEDCLEASMTYSEEAEPDDNLSENLGSAAEGIGKPPPVYETKKARSYQIELAQPAINGKNALICAPTGSGKTFVSILICEHHFQNMPAGRKAKVVFLATKVPVYEQQKNVFKHHFERQGYSVQGISGENFSNVSVEKVIEDSDIIVVTPQILVNSFEDGTLTSLSIFTLMIFDECHNTTGNHPYNVLMTRYLEQKFNSASQLPQILGLTASVGVGNAKNIEETIEHICSLCSYLDIQAISTVRENIQELQRFMNKPEIDVRLVKRRIHNPFAAIISNLMSETEALMRTIYSVDTLSQNSKKDFGTQNYEHWIVVTQRKCRLLQLEDKEEESRICRALFICTEHLRKYNDALIISEDARIIDALSYLTEFFTNVKNGPYTELEQHLTAKFQEKEPELIALSKDETNENPKLEELVCILDDAYRYNPQTRTLLFAKTRALVSALKKCMEENPILNYIKPGVLMGRGRRDQTTGMTLPSQKGVLDAFKTSKDNRLLIATSVADEGIDIVQCNLVVLYEYSGNVTKMIQVRGRGRAAGSKCILVTSKTEVVENEKCNRYKEEMMNKAVEKIQKWDEETFAKKIHNLQMKERVLRDSRRKEIKPKVVEGQKNLLCGKCKAYACSTDDIRIIKDSHHIVLGEAFKERYTTKPHKKPMQFDGFEKKSKMYCRNNNCQHDWGITVKYLTFDNLPVIKIKSFVMESTATGTQMDFQKWKSINSSLKNFDVEEMSNLYPPF
For B1, the binding was “no binding”.

— publication PMC9853200
